# In PubChem BioAssay AID1347076 (National Center for Advancing Translational Sciences (NCATS), 2019):
# The whole screen tested about 400,000 compounds, of which about 13,000 (3.2%) were called active. Inconclusive means that the source gave no clear call. Such entries were picked first, then a sample of the others. The call rests on the fitted dose curve; in most records, active means well fitted cell-killing curve with a large enough effect; inconclusive means small, poorly fitted or top-dose-only effect, or effect the other way; inactive means flat fitted curve, though single readings scatter. Where the call is inconclusive, the potency comes from a doubtful curve fit.
# Assay: qHTS assay for MDR1-selective chemotherapeutics: Primary screen using the drug-selected MDR subline cells KB-V1; further: nearly all actives have a fitted effect of over 60% in size
# Conditions: KB-V1 MDR cells viability, CellTiter-Glo, 72 h; activity change, negative = cytotoxicity: at 46.1 µM (top of the series)
# Procedure, shortened: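 qHTS viability screen in drug-selected KB-V1 MDR cells: 72 h compound treatment at 37 degrees C, ATP luminescence end point.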
# On the % scale 0 is the no-effect control and ±100 the full control effect; potency means the concentration at half of the fitted maximal effect.
Structure (SMILES),"activity change, negative = cytotoxicity",Potency
COC(=O)c1cc(S(=O)(=O)N(C)C2CCCCC2)c[nH]1,inactive: -0.584%,–
Cc1nn(CC(=O)NCCc2ccc(Cl)cc2Cl)c(C)c1[N+](=O)[O-],–,"inconclusive: 23.1 µM [cytotoxic, single point]"
Cc1c(NC(=O)c2ccc(-c3ccc(F)cc3)o2)cccc1-c1nc2ncccc2o1,inactive: -24.9%,–
CCC(CC)NC(=O)C1CC(=O)N(CCc2ccc(F)cc2)C1 (stereo not drawn),inactive: -1.31%,–
Cc1cccc(-c2nnc3n2N=C(c2ccccc2)CS3)c1,–,active: 8.2 µM
Cc1ccc(-c2n[nH]c3c2C(c2ccccc2)N(c2ccc(C(=O)O)cc2)C3=O)cc1 (stereo not drawn),inactive: 16.1%,–
O=C1COCCOCCOCCOCC(=O)NCCN1,–,"inconclusive: 25.9 µM [rising, single point]"
COc1ccc([C@H]2CC(=O)C=C(c3ccc4ncccc4c3)C2)cc1,inactive: -0.176%,–
O=C(c1cnc(N2CCCCC2)c2ccccc12)N1CCN(c2ccc(F)cc2)CC1,–,"inconclusive: 32.6 µM [cytotoxic, single point]"
CC(=NNC(=S)N(Cc1ccccn1)Cc1ccccn1)c1cnccn1,–,active: 13 µM
CCOc1ccccc1CNC(=O)c1cc2oc3ccccc3c2n1CC,–,"inconclusive: 13 µM [cytotoxic, partial curve]"
Cc1nc2ccc(NC(=O)c3nn(CC(C)C)c(=O)c4ccccc34)cc2s1,–,"inconclusive: 8.2 µM [cytotoxic, partial curve]"
COc1cc(CN2CCNC(=O)C2CC(=O)N(C)CCN2CCOCC2)cc(OC)c1 (stereo not drawn),–,"inconclusive: 20.6 µM [rising, single point]"
CCC(=O)N(Cc1cccs1)C1CCOC(C)(C)C1 (stereo not drawn),inactive: 0%,–
Cc1ccn2c(-c3csc(NCc4ccccc4)n3)c(C)nc2c1,–,"inconclusive: 18.4 µM [cytotoxic, single point]"
Cc1ccc(Nc2nc(-c3ccc(F)cc3)cs2)nc1,inactive: -1.94%,–
Cc1ccc(-c2csc(NC(=O)CSc3nnc4c(n3)[nH]c3ccccc34)n2)cc1,–,"inconclusive: 5.8 µM [cytotoxic, partial curve]"
CC(CCc1ccco1)NC(=O)c1cc2c(-c3ccccc3F)nn(C)c2s1 (stereo not drawn),–,"inconclusive: 13 µM [cytotoxic, partial curve, poor fit]"
N#CC1=C(N)NC(SCc2ccccc2)=C(C#N)C12CCCCC2,–,"inconclusive: 18.4 µM [cytotoxic, partial curve, poor fit]"
CC1C(=O)N(Cc2cn(CCC3OCCCO3)nn2)CCS(=O)(=O)N1Cc1ccc(-c2ccc(Cl)c(Cl)c2)cc1 (stereo not drawn),–,"inconclusive: 20.6 µM [cytotoxic, single point]"
CC(=O)c1c(C)[nH]c(C(=O)CSc2nc3ccccc3n2C)c1C,–,"inconclusive: 23.1 µM [cytotoxic, partial curve, poor fit]"
C/C(=N\NC(=O)Cc1ccccc1)c1ccc(Cl)s1,–,"inconclusive: 29.1 µM [rising, single point]"
CCOC(=O)c1csc(NC(C)=O)n1,–,"inconclusive: 23.1 µM [rising, single point]"
Cc1ccc([N+](=O)[O-])cc1N/C=C/C(=O)c1ccco1,–,"inconclusive: 23.1 µM [cytotoxic, single point]"
CCNC(=S)N/N=C/c1ccc(OCC(=O)Nc2ccc(C)cc2)cc1,–,"inconclusive: 2.91 µM [cytotoxic, full curve, poor fit]"

Structure (SMILES),"activity change, negative = cytotoxicity",Potency
CN(C)Cc1c(C(=O)N/N=C/c2ccccc2OCc2c(F)cccc2Cl)nnn1-c1nonc1N,–,"inconclusive: 29.1 µM [cytotoxic, single point]"
Cc1noc(C(=O)Nc2ccc(C#N)cc2)c1Cl,–,"inconclusive: 7.31 µM [cytotoxic, partial curve]"
CC(c1ccc(F)cc1)n1c(-c2cccs2)n[nH]c1=S (stereo not drawn),inactive: 2.54%,–
COc1ccc(NS(=O)(=O)NC(=O)c2c(C)n(C)c3ccccc23)cc1,inactive: -9.56%,–
COC(=O)[C@@]1(Cc2ccc(OC)cc2)[C@H]2c3cc(C(=O)N4CCCC4)n(CCN4CCOCC4)c3C[C@H]2CN1C(=O)c1ccccc1,–,"inconclusive: 13 µM [cytotoxic, partial curve]"
CCn1c(C)c(C)c2cc(C(=O)NC3CCCCCC3)ccc21,inactive: -1.26%,–
Cc1ccc(S(=O)(=O)Oc2ccccc2N2C(=O)C3CC=CCC3C2=O)cc1 (stereo not drawn),–,active: 8.2 µM
CSc1ccc(C(=O)N2CCC(CCC(=O)NCc3ccc(F)cc3)CC2)cc1,–,"inconclusive: 6.51 µM [rising, partial curve]"
CC(=O)Nc1cccc(-c2nnc(-c3ccccc3)o2)c1,–,"inconclusive: 11.6 µM [cytotoxic, partial curve]"
Cc1cc(C)nc(Nc2n[nH]c(-c3ccc(N)cc3)n2)n1,inactive: -15.4%,–
CCn1c(SCC(=O)N2CCOCC2)nnc1C(C)NC(=O)c1ccccc1 (stereo not drawn),–,"inconclusive: 14.6 µM [rising, partial curve, poor fit]"
COC(=O)c1cc(NC(=S)Nc2cc(Cl)cc(Cl)c2)cc(C(=O)OC)c1,inactive: 0%,–
Cc1cnc(-c2nc3ccccc3n2C(C(=O)NC(C)(C)C)c2ccccc2)cn1 (stereo not drawn),inactive: -29.3%,–
COc1ccc(C(=O)Oc2ccc(F)cc2C(=O)/C=C/c2ccc(OC)c(OC)c2)cc1,–,"inconclusive: 29.1 µM [cytotoxic, single point]"
N#Cc1c(NC(=O)CSc2ncccn2)oc(-c2ccccc2)c1-c1ccccc1,–,"inconclusive: 32.6 µM [cytotoxic, single point]"
COc1ccccc1Nc1cc(C)nc2c(C)ccc([N+](=O)[O-])c12,–,"inconclusive: 29.1 µM [cytotoxic, single point]"
CCN1C(=O)N(S(=O)(=O)c2ccc(C)cc2)[C@@H](c2ccccc2)C(C(=O)OC)=C1C,–,"inconclusive: 16.4 µM [cytotoxic, single point]"
CCOC(=O)c1c(NC(=O)c2ccccc2C(=O)O)sc2c1CCC2,–,"inconclusive: 6.51 µM [rising, partial curve, poor fit]"
C=CCNc1nc(Cl)nc(Nc2ccc(OC)cc2)n1,–,active: 13 µM
COc1cc(/C=C/CNC[C@H]2O[C@@H](n3cnc4c(=O)[nH]c(N)nc43)[C@H](O)[C@@H]2O)ccc1O,inactive: 20.4%,–
Cc1ccc(NC(=O)CN2C(=S)NC(C)(C)CC2C)cc1Cl (stereo not drawn),–,"inconclusive: 18.4 µM [cytotoxic, single point]"
O=C(O)c1cccc(Sc2cc(Cl)ccc2C(=O)O)c1,inactive: 9.49%,–
C/C(Cl)=C\Cn1c(O)c(N=O)c2ccccc21,–,"inconclusive: 29.1 µM [rising, single point]"
Cc1cccc(C2CC(c3ccccc3)Nc3nc(N)nn32)c1 (stereo not drawn),inactive: -1.24%,–
O=C(c1ccco1)N1CCN(CC2CC3C=CC2C3)CC1 (stereo not drawn),–,"inconclusive: 23.1 µM [cytotoxic, single point]"

Structure (SMILES),"activity change, negative = cytotoxicity",Potency
CC(CNC(=O)c1cc2ccccn2n1)c1ccccc1 (stereo not drawn),inactive: 0%,–
Cc1cc(CNC(=O)c2ccc3c(c2)OCO3)c2ccccc2n1,–,"inconclusive: 29.1 µM [cytotoxic, single point]"
CCCCCC(=O)Nc1cc(S(=O)(=O)N2CCOCC2)ccc1N1CCCC1,inactive: -13.8%,–
O=C1CC2(CCN(C(=O)COc3ccc(F)cc3)CC2)Oc2ccccc21,inactive: -11.3%,–
CCc1cc(C(=O)NCC(c2cccs2)N2CCOCC2)sc1C (stereo not drawn),–,"inconclusive: 18.4 µM [cytotoxic, partial curve]"
Cc1nn(CCC(=O)NNC(=S)Nc2cccc(Cl)c2)c(C)c1[N+](=O)[O-],inactive: -16.6%,–
COc1ccc(OC)c(NC(=O)COC(=O)CSc2ccc(Cl)cc2)c1,inactive: -1.47%,–
CNc1cncc(-c2cccc(C(=O)N3CCOCC3)c2)n1,inactive: 4.04%,–
CCCN1C2CCCC1CC(NC(=S)NCCCOCC)C2 (stereo not drawn),–,active: 8.2 µM
CN(C)CCNC(=O)c1ccc(CS(=O)(=O)c2c(Cl)cccc2Cl)o1,–,"inconclusive: 32.6 µM [rising, single point]"
CC(C(=O)NC(=O)NC1CCCCC1)N1CCN(c2ccccn2)CC1 (stereo not drawn),–,"inconclusive: 14.6 µM [cytotoxic, partial curve, poor fit]"
CCCNC(=O)C1(C)CCCN(Cc2ccc(C(F)(F)F)cc2)C1 (stereo not drawn),inactive: 4.92%,–
Nc1ncnc(NC2CCS(=O)(=O)C2)c1[N+](=O)[O-] (stereo not drawn),–,"inconclusive: 29.1 µM [rising, single point]"
CCOc1ccc(NS(=O)(=O)c2ccc(C(=O)NCC3(N4CCCCC4)CCCCC3)cc2)cc1,–,"inconclusive: 29.1 µM [cytotoxic, partial curve, poor fit]"
Cn1c(Cn2nnc(-c3ccccc3)n2)nnc1SCc1ccccc1Cl,–,"inconclusive: 32.6 µM [cytotoxic, single point]"
C=CCN(c1ccccc1OC)S(=O)(=O)c1cccc(C(=O)OCC(=O)c2c(N)n(C)c(=O)n(C)c2=O)c1,–,active: 8.2 µM
CN(c1ccccc1)c1nc(N)c(C#N)c(CC#N)c1C#N,–,active: 7.31 µM
CC(C)Cc1ccc(C(C)C(=O)Nc2ccccc2O)cc1 (stereo not drawn),–,"inconclusive: 32.6 µM [cytotoxic, single point]"
CCOC(=O)c1sc(NC(=O)CSc2nnc(Cc3ccccc3)o2)c(C#N)c1C,–,"inconclusive: 29.1 µM [cytotoxic, single point]"
c1ccc(CNc2ncnc3c2ncn3Cc2ccccc2)cc1,inactive: 8.96%,–
O=C(Nc1ccc(Cl)c(S(=O)(=O)N2CCOCC2)c1)c1ccc2c(c1)OCO2,–,"inconclusive: 16.4 µM [cytotoxic, single point]"
O=C(COC(=O)c1cc[n+]([O-])cc1)Nc1ccc(Cl)cc1C(F)(F)F,inconclusive: -3.09%,–
Cc1ccc(C(=O)Nc2cccc(-c3ccc(N4CCOCC4)nn3)c2)cc1C,–,"inconclusive: 23.1 µM [cytotoxic, single point]"

# An excerpt of these results, with bars between the fields.
Structure (SMILES) | activity change, negative = cytotoxicity | Potency
CCCN1C2CCCC1CC(NC(=S)NCCCOCC)C2 (stereo not drawn) | – | active: 8.2 µM
CN(C)CCNC(=O)c1ccc(CS(=O)(=O)c2c(Cl)cccc2Cl)o1 | – | inconclusive: 32.6 µM [rising, single point]
CC(C(=O)NC(=O)NC1CCCCC1)N1CCN(c2ccccn2)CC1 (stereo not drawn) | – | inconclusive: 14.6 µM [cytotoxic, partial curve, poor fit]
CCCNC(=O)C1(C)CCCN(Cc2ccc(C(F)(F)F)cc2)C1 (stereo not drawn) | inactive: 4.92% | –
Nc1ncnc(NC2CCS(=O)(=O)C2)c1[N+](=O)[O-] (stereo not drawn) | – | inconclusive: 29.1 µM [rising, single point]
CCOc1ccc(NS(=O)(=O)c2ccc(C(=O)NCC3(N4CCCCC4)CCCCC3)cc2)cc1 | – | inconclusive: 29.1 µM [cytotoxic, partial curve, poor fit]
Cn1c(Cn2nnc(-c3ccccc3)n2)nnc1SCc1ccccc1Cl | – | inconclusive: 32.6 µM [cytotoxic, single point]
C=CCN(c1ccccc1OC)S(=O)(=O)c1cccc(C(=O)OCC(=O)c2c(N)n(C)c(=O)n(C)c2=O)c1 | – | active: 8.2 µM
CN(c1ccccc1)c1nc(N)c(C#N)c(CC#N)c1C#N | – | active: 7.31 µM
CC(C)Cc1ccc(C(C)C(=O)Nc2ccccc2O)cc1 (stereo not drawn) | – | inconclusive: 32.6 µM [cytotoxic, single point]
CCOC(=O)c1sc(NC(=O)CSc2nnc(Cc3ccccc3)o2)c(C#N)c1C | – | inconclusive: 29.1 µM [cytotoxic, single point]
c1ccc(CNc2ncnc3c2ncn3Cc2ccccc2)cc1 | inactive: 8.96% | –
O=C(Nc1ccc(Cl)c(S(=O)(=O)N2CCOCC2)c1)c1ccc2c(c1)OCO2 | – | inconclusive: 16.4 µM [cytotoxic, single point]
O=C(COC(=O)c1cc[n+]([O-])cc1)Nc1ccc(Cl)cc1C(F)(F)F | inconclusive: -3.09% | –
